Assay results reported in PMC10929191.
These are yes or no findings as the source states them, for the method shown. Binding seen in cells or lysates may run through a third protein. Some results given as binding are weak or reduced against the parent protein; the word gives no strength. For part of these data: Tags and fused reporters may be left off the sequences shown.

B1: TANK-binding kinase 1 (TBK1), endogenous in neonatal rat cardiomyocytes (enzyme, UniProt D4A7D3 1-729)
chain: MQSTSNHLWLLSDILGQGATANVFRGRHKKTGDLYAVKVFNNISFLRPVDVQMREFEVLKKLNHKNIVKLFAIEEETTTRHKVLIMEFCPCGSLYTVLEEPSNAYGLPESEFLIVLRDVVGGMNHLRENGIVHRDIKPGNIMRVIGEDGQSVYKLTDFGAARELEDDEQFVSLYGTEEYLHPDMYERAVLRKDHQKKYGATVDLWSVGVTFYHAATGSLPFRPFEGPRRNKEVMYKIITGKPSGAISGVQKAENGPIDWSGDMPLSCSLSQGLQALLTPVLANILEADQEKCWGFDQFFAETSDVLHRMVIHVFSLQHMTALKIYIHSYNTAAVFHELVYKQTKIISSNQELIYEGRRLVLELGRLAQHFPKTTEENPIFVTSREQLNSIGLRYEKISLPKIHPRYDLDGDASMAKAVTGVVCYACRTAGTLLLYQELMRKGVRWLIELVKDDYNETVHKKTEVVITLDFCIRNIEKTVKVYEKLMKVSLDAAELGEISDIHTKLLRLSSSQGTIESSLQDINSRLSPGGSLADTWAHQEGTHPRDRNVEKLQVLLNCITEIYYQFKKDKAERRLAYNEEQIHKFDKQKLYYHATKAMTHFTDECVRKYEAFKDTSEEWMRKMLHLRKQLLSLTNQCFDIEEEVSKYQDYTNELQETLPQKMLAASSGIKHTVAPIYPSSNTLVEMTLGMKKLKEEMEGVVKELAENNHILERFGSLTMDGGLRNVDCL
B2: Ubiquitin specific protease 38 (USP38), endogenous in neonatal rat cardiomyocytes (enzyme, UniProt D3Z8K5 1-1041)
chain: MDKILEGLVSSSHPLPLKRMIVRKVVESAEHWLDEAQCEAMFDLTTRLILEGQDPFQRQVGHQVLEAYARYHRPEFESFFNKTFVLGLLQQGYHSLDRKDVAILDYIHNGLKLIMSCPSVLDLFSLLQVEVLRMVCERPEPLLCARLSDLLTDFVQCVPKGKLSITFCQQLVRTIGHFQCVSTQEKELREYVSQVTKVSNLLQNIWKAEPSTLLPSLQEVFASISSTDASFEPSVALASLVQHIPLQMITVLIRSLTTDPNVKDASMTRALCRMIDWLSWPLAQHVDTWVIALLKGLAAVQKFTILIDVTLLKIELVFNRLWFPLVRPGALAVLSHMLLSFQHSPEAFHVIVPHIVNLVHSFRSDGLPSSTAFLVQLTELVHCMMYHYSGFPDLYEPILEAVKDFPKPTEEKIKLILNQSAWTSQSNALASCLSRLSGKSETGKTGLINLGNTCYMNSVLQALFMATEFRRQVLSLNLNGCNSLMKKLQHLFAFLAHTQREAYAPRIFFEASRPPWFTPRSQQDCSEYLRFLLDRLHEEEKILRIQSSHKPSEGLGCTETCLQEVTNKVAVPSESPSTGGSEKTLIEKMFGGKLRTHICCLNCRSTSHKVEAFTDLSLAFCPSPSVEDSSFQDPASLPSAQDDGLMQTSVTDAEEEPVVCNPAAAAFVCDSVVNERRLGSPPVEFPCAKNSSVPGESAKILVSKDVPQNPGGESTTSVTDLLNYFLAPEVLTGENQYYCESCASLQNAEKTMQITEEPEYLILTLLRFSYDQKYHVRRKILDNVSLPLVLELPVKRTSLSSLSEGWSADADFTDVNENLAKKLKPSGTEEAFCPKLVPYLLSSVVVHSGVSSESGHYYSYARNITGTESSYQMRPQSESLSLTPSQSSLLGGESPNTVIEQDLENKEMSQEWFLFNDSRVTFTSFQSVQKITSRFPKDTAYVLFYKKQSRTNGVRSDNPASGVWVNGEPPLQKELMDAITKDNKLYLQEQELNARARALQAASASCSFRPNGFDDNDPPGSCGPTGGGGGGGFNAVGRLVF

Experiments:
[1] = target: T1, Ubiquitin specific protease 38 (USP38), endogenous in neonatal rat cardiomyocytes (rat (endogenous in NRCMs)) (UniProt D3Z8K5); test: co-IP; endogenous proteins in NRCM lysate; precipitated with anti-USP38 or anti-TBK1 and magnetic protein A/G beads, anti-IgG as control, western blot; also with NRCMs stimulated with Ang II (interaction enhanced)
T1 sequence: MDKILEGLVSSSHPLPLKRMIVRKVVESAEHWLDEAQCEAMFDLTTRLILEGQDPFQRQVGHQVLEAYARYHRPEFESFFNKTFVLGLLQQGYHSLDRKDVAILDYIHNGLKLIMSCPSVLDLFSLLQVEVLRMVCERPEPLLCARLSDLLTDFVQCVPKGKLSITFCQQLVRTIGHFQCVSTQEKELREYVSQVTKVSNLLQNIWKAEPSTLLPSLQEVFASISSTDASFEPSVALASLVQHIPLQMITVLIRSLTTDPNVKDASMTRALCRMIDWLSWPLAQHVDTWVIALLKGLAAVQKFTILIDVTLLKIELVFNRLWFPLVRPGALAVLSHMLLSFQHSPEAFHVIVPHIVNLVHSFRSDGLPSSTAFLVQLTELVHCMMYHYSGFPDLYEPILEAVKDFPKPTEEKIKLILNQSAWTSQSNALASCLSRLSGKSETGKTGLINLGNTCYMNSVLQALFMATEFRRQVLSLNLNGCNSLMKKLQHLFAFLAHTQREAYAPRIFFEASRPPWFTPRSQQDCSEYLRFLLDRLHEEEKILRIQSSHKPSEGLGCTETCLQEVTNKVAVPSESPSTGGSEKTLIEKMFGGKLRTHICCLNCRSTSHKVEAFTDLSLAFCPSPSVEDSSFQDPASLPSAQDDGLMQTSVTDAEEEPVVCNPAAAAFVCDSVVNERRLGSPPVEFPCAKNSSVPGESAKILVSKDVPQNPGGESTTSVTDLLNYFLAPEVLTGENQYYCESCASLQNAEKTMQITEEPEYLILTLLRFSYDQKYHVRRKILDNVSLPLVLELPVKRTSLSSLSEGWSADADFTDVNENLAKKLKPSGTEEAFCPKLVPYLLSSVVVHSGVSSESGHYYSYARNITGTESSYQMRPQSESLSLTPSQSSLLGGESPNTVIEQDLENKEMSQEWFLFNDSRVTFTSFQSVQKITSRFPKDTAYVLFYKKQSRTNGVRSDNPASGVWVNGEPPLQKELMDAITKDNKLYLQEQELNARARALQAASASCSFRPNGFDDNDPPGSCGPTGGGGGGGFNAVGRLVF

[2] = target: T2, Flag-USP38 (exogenous USP38 expressed from Flag-AdUSP38) (rat) (UniProt D3Z8K5); test: co-IP; NRCMs transfected with Flag-AdUSP38, MG132 added 6 h before harvest; IgG antibody as negative control; western blot
T2 sequence: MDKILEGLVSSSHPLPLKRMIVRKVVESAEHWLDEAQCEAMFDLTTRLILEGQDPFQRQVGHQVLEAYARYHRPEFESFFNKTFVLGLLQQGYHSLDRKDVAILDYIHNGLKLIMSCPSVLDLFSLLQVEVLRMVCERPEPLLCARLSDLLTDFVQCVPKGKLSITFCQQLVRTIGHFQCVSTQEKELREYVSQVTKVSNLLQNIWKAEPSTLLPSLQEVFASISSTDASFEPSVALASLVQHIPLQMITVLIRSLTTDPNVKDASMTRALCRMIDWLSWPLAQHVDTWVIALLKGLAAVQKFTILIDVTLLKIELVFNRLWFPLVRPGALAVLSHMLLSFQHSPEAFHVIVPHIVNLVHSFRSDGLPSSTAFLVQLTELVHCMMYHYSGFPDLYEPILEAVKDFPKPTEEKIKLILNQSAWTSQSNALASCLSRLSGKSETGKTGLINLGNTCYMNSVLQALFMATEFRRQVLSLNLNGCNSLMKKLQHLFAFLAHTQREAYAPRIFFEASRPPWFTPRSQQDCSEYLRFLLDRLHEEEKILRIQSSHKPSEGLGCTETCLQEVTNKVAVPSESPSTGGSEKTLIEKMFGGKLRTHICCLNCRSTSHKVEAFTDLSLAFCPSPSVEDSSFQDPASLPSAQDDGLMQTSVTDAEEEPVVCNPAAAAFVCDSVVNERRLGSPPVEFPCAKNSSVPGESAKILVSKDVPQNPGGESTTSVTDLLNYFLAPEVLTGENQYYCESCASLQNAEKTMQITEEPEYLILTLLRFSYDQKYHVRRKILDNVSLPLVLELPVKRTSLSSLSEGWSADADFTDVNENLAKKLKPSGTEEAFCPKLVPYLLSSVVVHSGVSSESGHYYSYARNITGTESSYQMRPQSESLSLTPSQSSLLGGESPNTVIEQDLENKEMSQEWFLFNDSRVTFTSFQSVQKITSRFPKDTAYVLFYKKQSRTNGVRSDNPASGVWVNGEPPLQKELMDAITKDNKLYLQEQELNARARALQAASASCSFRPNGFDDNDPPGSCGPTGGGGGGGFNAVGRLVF

[3] = target: T3, TANK-binding kinase 1 (TBK1), endogenous in neonatal rat cardiomyocytes (rat (endogenous in NRCMs)) (UniProt D4A7D3); test: co-IP; endogenous proteins in NRCM lysate; precipitated with anti-USP38 or anti-TBK1 and magnetic protein A/G beads, anti-IgG as control, western blot; also with NRCMs stimulated with Ang II (interaction enhanced)
T3 sequence: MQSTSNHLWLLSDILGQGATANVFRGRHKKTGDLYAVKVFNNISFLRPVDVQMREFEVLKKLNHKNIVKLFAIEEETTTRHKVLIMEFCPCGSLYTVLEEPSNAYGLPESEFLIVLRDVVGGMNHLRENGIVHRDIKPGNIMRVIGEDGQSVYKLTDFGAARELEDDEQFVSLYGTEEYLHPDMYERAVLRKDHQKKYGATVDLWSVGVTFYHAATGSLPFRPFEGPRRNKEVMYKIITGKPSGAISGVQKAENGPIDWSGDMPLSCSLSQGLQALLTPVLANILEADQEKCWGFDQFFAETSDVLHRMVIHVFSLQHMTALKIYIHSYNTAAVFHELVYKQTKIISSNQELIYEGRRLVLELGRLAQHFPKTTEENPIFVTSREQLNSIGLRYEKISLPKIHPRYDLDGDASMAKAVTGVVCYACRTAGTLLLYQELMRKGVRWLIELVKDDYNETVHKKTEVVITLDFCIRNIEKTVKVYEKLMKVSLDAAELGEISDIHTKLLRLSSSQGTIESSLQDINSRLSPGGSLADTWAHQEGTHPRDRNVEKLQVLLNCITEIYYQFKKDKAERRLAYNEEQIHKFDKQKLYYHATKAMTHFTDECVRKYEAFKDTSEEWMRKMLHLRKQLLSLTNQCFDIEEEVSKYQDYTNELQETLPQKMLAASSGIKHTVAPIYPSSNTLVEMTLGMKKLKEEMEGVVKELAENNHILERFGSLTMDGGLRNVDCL

binding [1] | binding [2] | binding [3] | Binder
binds | binds | – | B1
– | – | binds | B2
